Results: paper PMC3386289, “Isolation of Human Mitotic Protein Phosphatase Complexes: Identification of a Complex between Protein Phosphatase 1 and the RNA Helicase Ddx21” (PLoS ONE, 2012)
Results are given in words; binding and its absence hold for the method and conditions named. For some of these results: Binding seen in cells or lysates may run through a third protein. Some results given as binding are weak or reduced against the parent protein; the word gives no strength. For some of these results: Where a sequence is shown, tags or fusion partners need not be part of it.

Amino acid sequences for entries named in this document (tags omitted).
UniProt P36873: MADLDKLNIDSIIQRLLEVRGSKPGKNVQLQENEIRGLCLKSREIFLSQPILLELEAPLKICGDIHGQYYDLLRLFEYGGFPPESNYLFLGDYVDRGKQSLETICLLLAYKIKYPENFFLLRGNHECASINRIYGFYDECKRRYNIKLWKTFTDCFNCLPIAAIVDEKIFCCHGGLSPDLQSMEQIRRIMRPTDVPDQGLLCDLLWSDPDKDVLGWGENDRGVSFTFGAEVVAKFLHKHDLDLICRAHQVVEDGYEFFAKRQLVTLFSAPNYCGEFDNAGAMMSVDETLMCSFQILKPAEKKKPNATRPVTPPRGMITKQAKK
UniProt Q96SB4: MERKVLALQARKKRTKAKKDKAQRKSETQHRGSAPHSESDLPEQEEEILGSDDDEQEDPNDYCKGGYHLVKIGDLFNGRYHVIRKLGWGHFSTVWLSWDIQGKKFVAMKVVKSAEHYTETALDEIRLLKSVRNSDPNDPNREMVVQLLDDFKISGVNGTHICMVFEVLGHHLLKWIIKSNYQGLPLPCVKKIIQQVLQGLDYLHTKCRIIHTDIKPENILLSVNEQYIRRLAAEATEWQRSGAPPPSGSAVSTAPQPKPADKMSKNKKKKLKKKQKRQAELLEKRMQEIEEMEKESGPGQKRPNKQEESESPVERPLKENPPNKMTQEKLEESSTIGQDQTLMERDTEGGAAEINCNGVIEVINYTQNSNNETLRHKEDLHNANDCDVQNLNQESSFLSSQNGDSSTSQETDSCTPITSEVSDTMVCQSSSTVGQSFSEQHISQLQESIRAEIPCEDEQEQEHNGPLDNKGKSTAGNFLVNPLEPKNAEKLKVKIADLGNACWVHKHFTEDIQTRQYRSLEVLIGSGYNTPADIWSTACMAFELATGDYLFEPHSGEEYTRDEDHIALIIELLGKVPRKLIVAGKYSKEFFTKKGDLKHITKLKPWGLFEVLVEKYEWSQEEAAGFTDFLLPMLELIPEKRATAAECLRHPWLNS

What was measured:
[1] = target: PP1β (endogenous) (human (endogenous in HeLa)) (UniProt P62140); test: co-IP; antibodies against human PP1 isoforms or control antibodies (PIS rabbit IgGs); diluted MAPs from the mitotic spindle and chromatin associated proteome of HeLa; western blot
[2] = target: PP1γ (endogenous) (human (endogenous in HeLa)) (UniProt P36873); test: as above
[3] = target: T1, His6-Ddx21_(double) (human) (UniProt Q9NR30); test: pull-down; 300 ng PP1 and 200 ng His6-Ddx21 in 25 mM Tris pH 7.5, 5% glycerol, 150 mM NaCl, 0.5% Igepal630, 10 mM imidazole, 4°C; Ni-NTA beads; wash 450 mM NaCl, 0.5% Tween-20 (γ: 500 mM NaCl, 0.75% Tween-20); western blot; both purified
T1 sequence: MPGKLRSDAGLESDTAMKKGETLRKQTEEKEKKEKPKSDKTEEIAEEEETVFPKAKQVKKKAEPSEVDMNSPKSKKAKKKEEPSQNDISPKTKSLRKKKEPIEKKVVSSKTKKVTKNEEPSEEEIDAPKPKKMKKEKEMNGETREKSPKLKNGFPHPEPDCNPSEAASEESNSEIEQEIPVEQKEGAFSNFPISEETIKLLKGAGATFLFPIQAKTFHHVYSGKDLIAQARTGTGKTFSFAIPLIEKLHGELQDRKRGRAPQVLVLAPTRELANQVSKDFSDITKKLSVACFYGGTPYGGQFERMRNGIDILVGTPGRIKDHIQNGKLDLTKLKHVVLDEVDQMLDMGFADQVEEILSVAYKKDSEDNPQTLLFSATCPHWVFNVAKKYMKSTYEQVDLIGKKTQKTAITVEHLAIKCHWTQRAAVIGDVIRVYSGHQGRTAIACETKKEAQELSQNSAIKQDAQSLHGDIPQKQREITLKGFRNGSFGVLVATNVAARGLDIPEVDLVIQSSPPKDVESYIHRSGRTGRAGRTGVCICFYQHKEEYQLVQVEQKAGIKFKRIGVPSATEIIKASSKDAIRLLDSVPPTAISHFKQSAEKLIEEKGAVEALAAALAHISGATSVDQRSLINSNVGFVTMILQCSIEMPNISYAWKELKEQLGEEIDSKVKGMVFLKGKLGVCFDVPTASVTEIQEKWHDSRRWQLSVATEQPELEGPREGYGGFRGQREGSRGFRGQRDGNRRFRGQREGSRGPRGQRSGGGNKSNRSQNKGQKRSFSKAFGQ

[4] = target: His6-Ddx21_(motif1) (human) (UniProt Q9NR30); test: as above

## Serine/Arginine Protein kinase SRPK1 (from UniProt Q96SB4 1-655) (enzyme)
[1]
  binding: no binding
[2]
  binding: binds

B1: PP1β, bacterially expressed and purified (enzyme, human, UniProt P62140 1-327, looked up)
chain: MADGELNVDSLITRLLEVRGCRPGKIVQMTEAEVRGLCIKSREIFLSQPILLELEAPLKICGDIHGQYTDLLRLFEYGGFPPEANYLFLGDYVDRGKQSLETICLLLAYKIKYPENFFLLRGNHECASINRIYGFYDECKRRFNIKLWKTFTDCFNCLPIAAIVDEKIFCCHGGLSPDLQSMEQIRRIMRPTDVPDTGLLCDLLWSDPDKDVQGWGENDRGVSFTFGADVVSKFLNRHDLDLICRAHQVVEDGYEFFAKRQLVTLFSAPNYCGEFDNAGGMMSVDETLMCSFQILKPSEKKAKYQYGGLNSGRPVTPPRTANPPKKR
notes: Protein phosphatase 1 catalytic subunit, isoform β, human; also called protein phosphatase 1 beta
[3]
  binding: binds weakly
[4]
  binding: no binding
